Results published in PubChem BioAssay AID504847 (National Center for Advancing Translational Sciences (NCATS), 2011).
Out of some 400,000 compounds screened, about 3,700 (0.93%) were called active. The shares of active, inactive and inconclusive entries below differ from those in the screen. Calls follow the shape of the dose curve; as a rule, active = well fitted inhibition curve with a large enough effect; inconclusive = small, poorly fitted or top-dose-only effect, or another doubt; inactive = no such curve, though single readings can be large or run the other way. Potencies of inconclusive entries are doubtful fits and often do not repeat.

By UniProt entry, the sequences of proteins in these tests, tags left out. Where a name states a change or a piece, a line headed by the entry shows the natural chain unless it says otherwise.
UniProt P11473: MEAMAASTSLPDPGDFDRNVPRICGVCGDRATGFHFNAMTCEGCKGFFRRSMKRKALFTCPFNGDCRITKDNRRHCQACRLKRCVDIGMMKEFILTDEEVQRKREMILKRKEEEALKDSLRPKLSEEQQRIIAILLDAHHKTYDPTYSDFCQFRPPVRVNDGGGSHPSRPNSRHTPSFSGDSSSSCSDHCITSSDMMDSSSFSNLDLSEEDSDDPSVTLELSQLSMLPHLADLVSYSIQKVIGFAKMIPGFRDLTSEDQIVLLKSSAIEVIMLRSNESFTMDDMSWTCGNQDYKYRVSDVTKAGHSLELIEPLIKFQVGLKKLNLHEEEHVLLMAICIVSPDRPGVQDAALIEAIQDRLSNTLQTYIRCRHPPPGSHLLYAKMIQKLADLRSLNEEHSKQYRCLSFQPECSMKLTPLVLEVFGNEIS

target: Vitamin D3 receptor (Homo sapiens) (UniProt P11473); assay: Inhibitors of the vitamin D receptor (VDR): qHTS; details: VDR-SRC2-3 peptide fluorescence polarization, 2 h; max response, negative = inhibition: hits give low values
Outline: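 Measured by FP: displacement of SRC2-3 coactivator peptide from VDR by library compounds, following a two-hour ambient incubation.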
% is scaled to controls: 0 for no effect and ±100 for the full control effect; potency is read from the fitted curve at half-maximal effect.

| SMILES | max response, negative = inhibition | Potency |
| --- | --- | --- |
| N/C(=N\OC(=O)Cc1cccs1)c1ccccc1 | inactive: 10.5% |  |
| Cc1ccc(NC(=O)COC(=O)/C=C/c2ccccc2)cc1S(=O)(=O)N1CCOCC1 | inactive: -8.1% |  |
| CCOC(=O)C1=C(CS(=O)(=O)c2c(C)cc(C)cc2C)NC(=O)NC1c1cccc(OC)c1 (stereo unspecified) |  | inconclusive: 89.1 µM [inhibitor, single point] |
| CCOC(=O)c1c2ccccc2[n+]([O-])n1[C@@H](C)C(N)=O |  | inconclusive: 70.8 µM [inhibitor, partial curve, poor fit] |
| Cc1ccccc1-n1ncc2c1CC(C)(C)CC2NC(=O)c1cn[nH]c1C (stereo unspecified) |  | inconclusive: 15.8 µM [inhibitor, partial curve, poor fit] |
| COc1ccc(C2Nc3ccccc3C(=O)N2Cc2ccco2)cc1OC (stereo unspecified) |  | inconclusive: 79.4 µM [inhibitor, partial curve, poor fit] |
| N#Cc1ccccc1-c1ccc2ncnc(NC3CC3)c2c1 |  | inconclusive: 50.1 µM [inhibitor, partial curve, poor fit] |
| CCN(C(=O)COC(=O)/C=C/c1ccco1)c1c(N)n(Cc2ccccc2)c(=O)[nH]c1=O | inactive: -2% |  |
| Cn1c(CC(=O)Nc2ccccc2)c(Sc2ccccc2)c2ccccc21 | inactive: 2.73% |  |
| COc1ccc(C(=O)CNC2=NCCC2)cc1 | inactive: -17% |  |
| O=C(NCc1cccnc1)C1CCN(Cc2cc3ccccc3n2Cc2cccc(Cl)c2)CC1 | inactive: 0.875% |  |
| Cn1nc(-c2ccc(Cl)cc2)c2cc(C(=O)NC3CC3)sc21 |  | inconclusive: 100 µM [inhibitor, partial curve, poor fit] |
| O=C(/C=C/c1ccccc1)NC(NC(=S)Nc1ccc(Cl)cc1)C(Cl)(Cl)Cl (stereo unspecified) |  | inconclusive: 89.1 µM [inhibitor, single point] |
| CN(C)c1nc(N)nc(/C(C#N)=C/C2CC3C=CC2C3)n1 (stereo unspecified) | inactive: 2.55% |  |
| O=C(O)CCCN=CC1=C(O)CNC1=O |  | inconclusive: 70.8 µM [inhibitor, single point] |
| O=C(/C=C/c1ccc(/C=C/C(=O)Nc2ccc(C3=NCCN3)cc2)cc1)Nc1ccc(C2=NCCN2)cc1 |  | inconclusive: 39.8 µM [inhibitor, single point] |
| O=C(NN1CCOCC1)c1cccc2ccccc12 |  | inconclusive: 56.2 µM [inhibitor, partial curve, poor fit] |
| CCC(=O)N1CCc2cc(Br)cc(S(=O)(=O)N3CCCC(C(=O)Nc4cccc(Cl)c4C)C3)c21 (stereo unspecified) |  | inconclusive: 3.98 µM [inhibitor, partial curve, poor fit] |
| S=C1SCN(Cc2ccccn2)CN1Cc1ccco1 |  | inconclusive: 100 µM [inhibitor, single point] |
| CCCNC(=O)C(Cc1ccc(I)cc1)NC(=O)C1CC1 (stereo unspecified) |  | inconclusive: 63.1 µM [inhibitor, partial curve, poor fit] |
| Cn1sccc1=O |  | active: 15.8 µM |
| CCn1c(CC(=O)Nc2ccc(C)cc2)n[nH]c1=S | inactive: 6.39% |  |

| SMILES | max response, negative = inhibition | Potency |
| --- | --- | --- |
| CNC(=O)OCc1nc(SSC(C)(C)C)n(C)c1COC(=O)NC |  | inconclusive: 89.1 µM [inhibitor, single point] |
| CC(C)C[C@@H](CNCC(=O)[C@H](CC(C)C)NC(=O)c1[nH]cnc1C(=O)N[C@@H](C)CN)NC(=O)c1nc[nH]c1C(=O)N[C@@H](CC(=O)O)C(=O)O |  | inconclusive: 100 µM [inhibitor, single point] |
| O=C(CSc1nnc(COc2ccccc2)o1)NCCc1ccccc1 |  | inconclusive: 8.91 µM [inhibitor, single point] |
| CN(C)c1ccc(C=c2c3cc([N+](=O)[O-])ccc3n3c2cc(-c2ccccc2)[n+]3C)cc1 |  | inconclusive: 63.1 µM [inhibitor, single point] |
| COc1cccc(-c2nc(CS(=O)(=O)CC(=O)NC3CCC(C)CC3)c(C)o2)c1 (stereo unspecified) |  | inconclusive: 14.1 µM [inhibitor, partial curve] |
| COc1ccc(CC(=O)n2[nH]c(=O)cc(C)c2=O)cc1OC |  | inconclusive: 50.1 µM [inhibitor, partial curve, poor fit] |
| COc1cc(/C=C2/C(=O)ON=C2C)cc(Cl)c1O |  | active: 89.1 µM |
| COc1ccc(Br)c2oc(S)cc(=O)c12 |  | inconclusive: 100 µM [inhibitor, partial curve, poor fit] |
| CCCCc1nc(N2CCN(C(=O)c3ccco3)CC2)c(C#N)c2c1CCCC2 | inactive: -8.82% |  |
| Cc1sc2nc(CSC(C)C(=O)Nc3cc(S(C)(=O)=O)ccc3Cl)[nH]c(=O)c2c1C (stereo unspecified) | inactive: -3.37% |  |
| CC(C)CN1CC[C@@]2(CCCN(C(=O)c3csnn3)C2)C1 | inactive: 7.23% |  |
| CC(C)CN(C(=O)CSc1nc(-c2ccccc2)cn1N)c1c(N)n(Cc2ccccc2)c(=O)[nH]c1=O |  | inconclusive: 89.1 µM [inhibitor, single point] |
| Cc1nc2cncnc2n(Cc2ccccc2Cl)c1=O |  | inconclusive: 50.1 µM [inhibitor, partial curve] |
| CNC(=S)N/N=C/c1ccc(OCC(=O)Nc2c(C)cc(C)cc2C)c(OC)c1 |  | inconclusive: 0.708 µM [inhibitor, full curve, poor fit] |
| COCCn1c(=O)[nH]c2cc(C(=O)NCCCN3CCN(c4ccc(F)cc4)CC3)ccc2c1=O |  | inconclusive: 8.91 µM [inhibitor, partial curve, poor fit] |
| Cc1nn(C)c(C)c1-c1c(C#N)c(N)nc2c1CCCCCC2 |  | inconclusive: 0.891 µM [inhibitor, partial curve, poor fit] |
| COc1ccc(S(=O)(=O)N2CCOC2CNC(=O)C(=O)NCc2cccnc2)cc1OC (stereo unspecified) |  | inconclusive: 79.4 µM [inhibitor, partial curve, poor fit] |
| COc1ccccc1N1CCN(C(=O)CSc2nc3ccccc3nc2N2CCC(C)CC2)CC1 |  | inconclusive: 15.8 µM [inhibitor, partial curve, poor fit] |
| Cc1cc(C)nc(SCC(=O)Nc2ncc3c(n2)CC(C)(C)CC3=O)n1 | inactive: -14.7% |  |
| CC1=NN(C(N)=S)C(=O)C1N=Nc1ccc(Cl)cc1Cl (stereo unspecified) |  | inconclusive: 100 µM [inhibitor, partial curve, poor fit] |
| CN(Cc1ccco1)c1nc(-c2cccc(C#N)c2)nc2ccccc12 |  | active: 44.7 µM |
| CCOC(=O)c1[nH]c2ccc(C)cc2c1NC(=O)CN1CCCCC1 | inactive: -9.11% |  |

An excerpt of these results, as tab-separated lines.
SMILES	max response, negative = inhibition	Potency
O=C(/C=C/c1ccc(/C=C/C(=O)Nc2ccc(C3=NCCN3)cc2)cc1)Nc1ccc(C2=NCCN2)cc1		inconclusive: 39.8 µM [inhibitor, single point]
COc1ccc(CC(=O)n2[nH]c(=O)cc(C)c2=O)cc1OC		inconclusive: 50.1 µM [inhibitor, partial curve, poor fit]

More results

| SMILES | max response, negative = inhibition | Potency |
| --- | --- | --- |
| O=C(c1ccco1)N1CCC2(CC1)CCN(C(c1ccccc1)c1ccccc1)CC2 |  | inconclusive: 39.8 µM [inhibitor, partial curve, poor fit] |
| O=C(c1ccc(-n2c(SCc3cccc(F)c3)nc3ccccc3c2=O)cc1)N1CCOCC1 |  | inconclusive: 79.4 µM [inhibitor, partial curve] |
| O=C(CCC(=O)Nc1nnc(C2CCCCC2)s1)NCc1ccccc1 |  | inconclusive: 31.6 µM [inhibitor, partial curve, poor fit] |
| O=C(Nc1nc2ccc(F)cc2s1)c1nc(S(=O)(=O)Cc2ccccc2)ncc1Cl |  | inconclusive: 28.2 µM [inhibitor, partial curve, poor fit] |
| CC1CCc2c(sc3nc(C(C)(C)C)nc(N4CCN(C(=O)CCl)CC4)c23)C1 (stereo unspecified) |  | inconclusive: 15.8 µM [inhibitor, partial curve, poor fit] |
| COc1ccc(S(=O)(=O)Nc2ccccc2)cc1OC | inactive: -10.7% |  |
| COC(=O)C(NC(C)=O)(Nc1sc2c(c1C(N)=O)CCCC2)C(F)(F)F (stereo unspecified) | inactive: 13.7% |  |
| COc1ccccc1-c1cncnc1Nc1ccccc1 |  | active: 28.2 µM |
| Cc1ccc2c(=O)cc(C(=O)Nc3ccc(S(=O)(=O)N4CCCCCC4)cc3)oc2c1C | inactive: 6.39% |  |
| Cc1cc(NCCNC2=CC(=O)CCC2)nc2ccccc12 |  | inconclusive: 8.91 µM [inhibitor, partial curve, poor fit] |
| CCCc1cc(C(=O)Nc2sc(C)c(C)c2C(=O)OCC)no1 |  | inconclusive: 89.1 µM [inhibitor, single point] |
| Cc1noc(/C=C/N(C)C)c1S(=O)(=O)N1CCCC(C(=O)Nc2ccc3c(c2)OCO3)C1 (stereo unspecified) |  | inconclusive: 89.1 µM [inhibitor, single point] |
| COCCN(CCOC)S(=O)(=O)c1ccc(C(=O)Nc2nnc(C3CC3)o2)cc1 | inactive: 6.69% |  |
| C[n+]1cccc(/C=N/Nc2nc(Cl)c(C#N)c(Cl)c2Cl)c1 | inactive: 3.9% |  |
| CCOC(=O)C1CCN(C(=O)C2CCN(C3=NS(=O)(=O)C(c4ccc(C)c(C)c4)=C3C)CC2)CC1 | inactive: -1.18% |  |
| O=C(O)c1cc(-c2ccccc2)c(N2CCOCC2)s1 | inactive: -1.68% |  |
| O=C1CSC(c2ccco2)N1 (stereo unspecified) | inactive: 12.2% |  |
| CSc1nnc(NC(=O)c2nc(S(=O)(=O)Cc3ccccc3)ncc2Cl)s1 |  | inconclusive: 25.1 µM [inhibitor, full curve, poor fit] |
| CCOC(=O)c1c(-c2ccc(F)cc2)csc1NC(=O)C1CCCO1 (stereo unspecified) |  | inconclusive: 79.4 µM [inhibitor, single point] |
| COC(=O)CCc1c(C)[nH]c(C(=O)OCc2ccccc2)c1C | inactive: 10.4% |  |
| COC(=O)C(O)C1C(C)(C)C(OC(C)=O)C2CC3=C4CC(=O)OC(c5ccoc5)[C@]4(C)CCC3[C@@]1(C)C2=O (stereo partly specified) |  | inconclusive: 50.1 µM [inhibitor, partial curve] |
| CCOC(=O)N1CCC(NC(=O)CCc2c(C)nc3c(c(C)nn3-c3ccccc3)c2C)CC1 |  | inconclusive: 8.91 µM [inhibitor, partial curve, poor fit] |

As a working copy, some entries already given:

| SMILES | max response, negative = inhibition | Potency |
| --- | --- | --- |
| CCCc1cc(C(=O)Nc2sc(C)c(C)c2C(=O)OCC)no1 |  | inconclusive: 89.1 µM [inhibitor, single point] |
| Cc1noc(/C=C/N(C)C)c1S(=O)(=O)N1CCCC(C(=O)Nc2ccc3c(c2)OCO3)C1 (stereo unspecified) |  | inconclusive: 89.1 µM [inhibitor, single point] |
